# PMC6925144, “A prospective compound screening contest identified broader inhibitors for Sirtuin 1” (Scientific Reports, 2019)
# By UniProt entry, the sequences of proteins in these tests, tags left out. Residues count along the entry.
# UniProt Q96EB6, 2-747 limits assumed: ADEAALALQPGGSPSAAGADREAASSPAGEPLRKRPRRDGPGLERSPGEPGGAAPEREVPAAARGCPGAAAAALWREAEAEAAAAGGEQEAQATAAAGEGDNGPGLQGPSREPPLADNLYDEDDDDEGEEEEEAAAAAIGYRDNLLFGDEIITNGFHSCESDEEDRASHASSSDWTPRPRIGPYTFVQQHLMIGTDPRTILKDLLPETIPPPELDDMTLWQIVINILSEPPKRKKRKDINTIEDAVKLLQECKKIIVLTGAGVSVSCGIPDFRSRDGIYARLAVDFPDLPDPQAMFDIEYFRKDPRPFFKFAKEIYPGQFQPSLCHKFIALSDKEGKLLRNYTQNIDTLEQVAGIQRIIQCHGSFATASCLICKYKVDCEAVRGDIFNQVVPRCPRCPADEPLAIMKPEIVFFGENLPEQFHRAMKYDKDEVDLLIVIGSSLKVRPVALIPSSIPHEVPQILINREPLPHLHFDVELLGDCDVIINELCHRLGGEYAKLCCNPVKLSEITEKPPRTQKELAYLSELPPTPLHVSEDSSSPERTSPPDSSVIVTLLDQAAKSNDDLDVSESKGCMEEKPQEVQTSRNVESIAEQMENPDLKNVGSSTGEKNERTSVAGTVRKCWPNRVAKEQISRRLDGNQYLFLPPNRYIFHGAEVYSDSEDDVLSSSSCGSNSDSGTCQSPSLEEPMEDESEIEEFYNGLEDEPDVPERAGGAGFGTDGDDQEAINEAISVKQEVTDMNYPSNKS
# Over roughly 3,200 compounds, “TSA(without NAD+) / Primary screening (TSA) / delta Tm (K)” has its median near -0.07; the highest 2% begin near 0.37. The list shows a part of the results.
# Target: NAD-dependent deacetylase Sirtuin 1 (human, UniProt Q96EB6)
# Test: primary screen, delta tm
# Parameters: single well (n = 1)
# Conditions: 10 µM
# Summary of the method: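 Thermal shift of Sirtuin 1 measured without NAD+, compound at 10 µM (n = 1); value is ΔTm, with hits defined as ΔTm > 0.45 K or < −1.5 K. Hits retested at 5, 10, 20 µM (n = 4) and counterscreened on bovine carbonic anhydrase and ABL1 SH2 domain.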
row,Compound,TSA(without NAD+) / Primary screening (TSA) / delta Tm (K)
1,O=C(NC12CC3CC(CC(C3)C1)C2)c1c[nH]n2c1nc(=O)c1ccccc12,-0.03
2,Cc1oc2cc(OC(C)C(=O)NCc3ccco3)ccc2c(=O)c1-c1c(F)cccc1Cl (stereo not shown),-0.11
3,COc1cc(NC(=O)c2ccco2)c(C(=O)OCc2nc3ccsc3c(=O)[nH]2)cc1OC,-0.24
4,CC(C)Nc1nnc(S)s1,-0.02
5,Cc1ccc(C2C(C(=O)c3nc4ccccc4s3)=C(O)C(=O)N2CCCN2CCOCC2)cc1 (stereo not shown),-0.23
6,Cc1sc2ncnc(N3CCC(C(N)=O)CC3)c2c1C,-0.11
7,CN1C(=O)N(CC(=O)Nc2ccc(-n3cnc4ccccc43)nc2)C(=O)C12CCCCC2,-0.13
8,Cc1cc2ccccc2n1CC(=O)NCC(Cc1ccccc1)N(C)C (stereo not shown),-0.12
9,CCOc1ccc(CN(C)CC(=O)Nc2oc(C)c3c(C)n[nH]c(=O)c23)cc1,-0.01
10,CCn1c(=O)c(=O)[nH]c2cc(C(=O)N(C)Cc3ccc(OCc4ccccc4)c(OC)c3)ccc21,0.05
11,CCCCNC(=O)C1CCN(S(=O)(=O)c2cc(C(N)=O)n(C)c2)CC1,0.19
12,O=C(CNC(=O)C12CC3CC(CC(C3)C1)C2)N1CCN(S(=O)(=O)c2ccc3ccccc3c2)CC1,-0.12
13,Cn1ncc2c(=O)n(CC(=O)N3CCCc4c(C(N)=O)cccc43)cnc21,-0.18
14,CCn1c(C(=O)Nc2ccc3nc[nH]c(=O)c3c2)cc2ccccc21,-0.23
15,NC(=O)C1CCCCC1NCc1nc2c(s1)CCC2 (stereo not shown),-0.12
16,COc1ccc(C(=O)NNC(=O)COc2ccccc2C)cc1S(=O)(=O)NC(C)C12CC3CC(CC(C3)C1)C2 (stereo not shown),0.09
17,O=C(O)c1cc(S(=O)(=O)NCC2CCCO2)ccc1Br (stereo not shown),-0.08
18,O=C(NCc1ccc(C(=O)N2CCCCC2)cc1)c1ccccc1Nc1ccccc1,0.17
19,CC1CCN(Cc2nc(N3CCNC(C(N)=O)C3)c3c4c(sc3n2)CCC4)CC1 (stereo not shown),-0.13
20,CCC1(N)CC1,-0.11
21,Cc1ccc(NC(=O)CN2CCN(C(=O)c3ccc(-c4ccc(F)cc4)o3)CC2)cc1,0.02
22,NC(=O)CN(Cc1ccc(OCc2ccccc2)cc1)C(=O)c1ccncc1,0.27
23,O=c1ccncn1CC1Cc2ccccc2O1 (stereo not shown),-0.18

row,Compound,TSA(without NAD+) / Primary screening (TSA) / delta Tm (K)
1,COc1cccc(CN(C)CC(=O)NC(=O)NCc2ccccc2)c1,-0.18
2,Cc1cc(=O)[nH]c(-c2cccc(NC(=O)c3cnc4ccccc4n3)c2)n1,0.07
3,COc1cccc(/C=C/C(=O)N2CCC(CC(N)=O)CC2)c1OC,-0.02
4,CN(c1cccnn1)C1CCN(c2ncnc3c2oc2ccccc23)CC1,-0.15
5,Cc1nc2c(cc1C(=O)N(C)C)c(C)nn2C,-0.08
6,CN(CCO)c1ncnc2c1oc1ccccc12,-0.27
7,C#CCC(Nc1nc(-c2cccnc2)nc2ccccc12)C(N)=O (stereo not shown),-0.13
8,CC1(C)CCC(NC(=O)c2ccc3c(c2)C(=O)NC3=O)c2ccccc21 (stereo not shown),-0.03
9,C#CCC(NC(=O)c1cccc(S(=O)(=O)N(C)c2ccc(C)cc2)c1)C(N)=O (stereo not shown),0.13
10,Cc1nc(-c2cccc(N3CC(C(=O)O)CC3=O)c2)oc1C (stereo not shown),-0.22
11,CNCC1CCN(S(=O)(=O)c2ccc(C#N)cc2C)CC1,0.12
12,NCCN1CCC1,-0.03
13,O=C(NCC1CC2c3ccccc3C1c1ccccc12)c1cnccn1 (stereo not shown),-0.17
14,COc1cc(CN(C)C(=O)Cc2c[nH]c3ccccc23)ccc1OCc1ccccc1,-0.07
15,COc1ccccc1/C=C1/Oc2cc(O)ccc2C1=O,-0.11
16,COc1ccc(CCNC(=O)CSc2nnc(C)s2)cc1OC,-0.12
17,Cc1nc(-c2ccccc2)sc1C(=O)C1=C(O)C(=O)N(CCN2CCOCC2)C1c1cccs1 (stereo not shown),-0.05
18,COc1ccc(-c2nn(-c3ccccc3)cc2CN(CCCCCCN(Cc2cn(-c3ccccc3)nc2-c2ccc(OC)cc2)C(=O)CCC(=O)O)C(=O)CCC(=O)O)cc1,0.37
19,O=C(C1CCN(c2cc(=O)n3ccccc3n2)CC1)N1CCCCC1,0.02
20,Cc1nn(C)c2ncc(S(=O)(=O)N(C)c3ccc(F)cc3)cc12,-0.22
21,Cc1cc(NC(=O)N2Cc3cc4c(cc3C3(CCCC3)C2)OCCO4)no1,-0.33
22,Cc1cc(=O)[nH]c(-c2cccc(NC(=O)c3ccc4c(c3)CCC4)c2)n1,-0.04
23,CN(Cc1cccc(F)c1)C(=O)c1cnc2ccccn2c1=O,0.13

# Laid out differently: three of the compounds above.
row	Compound	TSA(without NAD+) / Primary screening (TSA) / delta Tm (K)
5	Cc1nc2c(cc1C(=O)N(C)C)c(C)nn2C	-0.08
6	CN(CCO)c1ncnc2c1oc1ccccc12	-0.27
7	C#CCC(Nc1nc(-c2cccnc2)nc2ccccc12)C(N)=O (stereo not shown)	-0.13

# (list continues)

row,Compound,TSA(without NAD+) / Primary screening (TSA) / delta Tm (K)
1,Cc1noc(COC(=O)c2cc(-c3ccc(C)o3)nc3ccccc23)n1,-0.01
2,c1ccc(-n2ncc3c(N4CCCO4)ncnc32)cc1,-0.31
3,O=C(CCc1c[nH]c2ccccc12)Nc1cccc(S(=O)(=O)NCc2ccco2)c1,-0.01
4,CN(CCCNC(=O)N[C@@H]1c2ccccc2C[C@@H]1O)S(C)(=O)=O,-0.08
5,Cn1c(SCc2nc3ccccc3s2)nc2ccsc2c1=O,-0.24
6,O=C(NCC(=O)N1CC=C(c2ccccc2)CC1)NCc1ccccc1,-0.12
7,O=c1[nH]c(CNc2ccc3c(c2)OCO3)nc2ccsc12,-0.17
8,O=S1CCN(c2ncnc3ccsc23)CC1,-0.11
9,O=C(O)[C@@H](O)[C@H](O)C(=O)O,-0.22
10,Cc1cc(C=C2C(=O)NC(=S)NC2=O)c(C)n1-c1ccc(F)cc1,-0.42
11,COc1ccc(-c2cc(NC(=O)Cc3n[nH]c(=O)c4ccccc34)ccc2OC(F)F)cc1,0.16
12,O=C(Cc1cccc2ccccc12)NCCN/C(O)=C1\N=CC=CC1=O,-0.05
13,NC(=O)c1cnc(N2CCCC(c3nnc[nH]3)C2)c(Cl)c1 (stereo not shown),0.02
14,CC(NC(=O)c1ccc2c(c1)CCC(=O)N2)c1ccc2c(c1)CC(=O)N2 (stereo not shown),-0.32
15,CC(C)n1nc(C(=O)Nc2cccc(S(=O)(=O)NCc3ccco3)c2)c2ccccc2c1=O,-0.05
16,COc1ccc(C2C(C(=O)c3ccc(F)cc3)=C(O)C(=O)N2CCCN2CCOCC2)cc1 (stereo not shown),0.32
17,Cc1cc2oc(=O)cc(CN3CCC(NS(C)(=O)=O)CC3)c2cc1C,-0.02
18,CCN(C(=O)CSc1nnc(NC2CCCCC2)s1)C1CCS(=O)(=O)C1 (stereo not shown),-0.05
19,CCCCC(N)CN (stereo not shown),-0.12
20,NC(=O)COC(=O)C1CCCN(C2=NS(=O)(=O)c3ccccc32)C1 (stereo not shown),-0.23
21,O=C(Nc1cc(S(=O)(=O)N2CCOCC2)ccc1Oc1ccccc1)C1=COCCO1,-0.04
22,COc1ccc(N(C)S(=O)(=O)c2cccc(C(=O)Nc3cccc(C#N)c3)c2)cc1,0.22
23,COC(=O)c1cn(CC(=O)N2CCc3ccc(O)cc3C2)c2ccccc12,0.08

row,Compound,TSA(without NAD+) / Primary screening (TSA) / delta Tm (K)
1,O=C1CC(C(=O)Nc2ccc(-c3csc(N4CCOCC4)n3)cc2)c2ccc(F)cc2N1 (stereo not shown),0.06
2,Cc1cc(-c2csc(NC(=O)c3nn(C)c(=O)c4ccccc34)n2)c(C)n1CCc1ccccc1,-0.11
3,O=C(COc1ccccc1C(=O)Nc1ccc(S(=O)(=O)Nc2nccs2)cc1)Nc1cccc(C(F)(F)F)c1,0.98
4,CC(=O)Nc1ccc(NC(=O)c2cccc(S(=O)(=O)N(C)c3ccc(C)cc3)c2)cc1,-0.11
5,Cc1nn2cccnc2c1C(=O)NCc1ccc(-c2nnn[nH]2)cc1,0.08
6,CCC(=O)CN,-0.22
7,COc1ccc(NS(=O)(=O)c2cccc(C(=O)NNC(=O)C34CC5CC(CC(C5)C3)C4)c2)cc1,-0.05
8,COc1ccc(C(=O)C2=C(O)C(=O)N(CCCN3CCOCC3)C2c2ccc(C)cc2)cc1C (stereo not shown),-0.15
9,CC(C)CCCN,-0.13
10,NC(=O)C1CCN(C(=O)c2ccc3[nH]c4c(c3c2)CCCC4)CC1,0.17
11,Cc1cc(C2CCN(c3ncnc4sc5c(c34)CCC5)CC2)[nH]n1,-0.21
12,C=CCN(C)C(=O)NC(C)c1ccc(NC(=O)c2ccncc2)cc1 (stereo not shown),-0.18
13,Cc1cc(NCc2cccnc2N2CCC(C(N)=O)CC2)nc(C)n1,0.07
14,CNC(C)CN (stereo not shown),-0.08
15,Cn1ncc2c(N3CCN(CCC(=O)Nc4sccc4C(N)=O)CC3)ncnc21,0.06
16,O=C(NCC1CCCN(Cc2cccs2)C1)c1ccc2n[n-]nc2c1 (stereo not shown),-0.12
17,CC(C)Oc1ccc(C(=O)C2=C(O)C(=O)N(CCCN3CCOCC3)C2c2ccncc2)cc1 (stereo not shown),-0.07
18,Cc1nc(-c2ccc(CCNC(=O)CN3CCCCCCC3=O)cc2)cs1,-0.02
19,Nc1nccnc1C(=O)NCC1CC2c3ccccc3C1c1ccccc12 (stereo not shown),-0.22
20,CN1C(=O)N(CCC23CC4CC(CC(C4)C2)C3)C(=O)C12CCCCC2,-0.22
21,O=C(NCCc1c[nH]c2ccccc12)c1c[nH]cnc1=O,0.02
22,Cc1cccc(Cc2cnc(NC(=O)c3cc4c(C)nn(-c5ccccc5)c4s3)s2)c1,-0.01

# Already shown: an excerpt of the list.
row,Compound,TSA(without NAD+) / Primary screening (TSA) / delta Tm (K)
21,Cc1cc(NC(=O)N2Cc3cc4c(cc3C3(CCCC3)C2)OCCO4)no1,-0.33
22,Cc1cc(=O)[nH]c(-c2cccc(NC(=O)c3ccc4c(c3)CCC4)c2)n1,-0.04

# Three entries from above, sorted by molar mass, low to high.
row,Compound,TSA(without NAD+) / Primary screening (TSA) / delta Tm (K)
21,O=C(NCCc1c[nH]c2ccccc12)c1c[nH]cnc1=O,0.02
22,Cc1cccc(Cc2cnc(NC(=O)c3cc4c(C)nn(-c5ccccc5)c4s3)s2)c1,-0.01
1,O=C1CC(C(=O)Nc2ccc(-c3csc(N4CCOCC4)n3)cc2)c2ccc(F)cc2N1 (stereo not shown),0.06
